Measurements: PMC5799372, “A NIN-LIKE PROTEIN mediates nitrate-induced control of root nodule symbiosis in Lotus japonicus”
A weaker result is weaker than the reference pair of the same experiment. Tags and fusion partners may be left off the protein sequences shown. For part of these data: For at least one entry, the source does not settle the construct or the ends of the probe.

What was measured:
[1] = target: T1, NIN(520-878)-myc (Lotus japonicus) (UniProt Q9S7B1); assay: EMSA; details: shift only at greatest protein amount, lower affinity than NRSYM1 at equal amounts; 20 mM HEPES-KOH pH 7.9, 50 mM KCl, 1 mM DTT, 4% glycerol, 0.1% Triton X-100, 10 ul, 30 min room temperature; 15% PAGE; protein translated in vitro; residues 520-878; protein details: myc; label: biotin (probe), unlabeled as competitor
T1 sequence (looked up): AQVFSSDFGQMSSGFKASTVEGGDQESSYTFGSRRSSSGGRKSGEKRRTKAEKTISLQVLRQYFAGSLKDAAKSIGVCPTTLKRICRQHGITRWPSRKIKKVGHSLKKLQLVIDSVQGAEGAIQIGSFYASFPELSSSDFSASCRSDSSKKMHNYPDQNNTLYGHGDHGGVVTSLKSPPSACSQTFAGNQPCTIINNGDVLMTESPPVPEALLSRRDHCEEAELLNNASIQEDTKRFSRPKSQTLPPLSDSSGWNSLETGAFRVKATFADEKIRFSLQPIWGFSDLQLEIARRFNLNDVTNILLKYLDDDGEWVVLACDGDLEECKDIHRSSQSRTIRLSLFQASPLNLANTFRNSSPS

[2] = target: T2, NRSYM1(531-976)-myc (UniProt A0A2Z5V8A6); assay: competition with a labelled probe; details: unlabeled competitor 20x/100x vs CLE-RS2-1 probe, 20 mM HEPES-KOH pH 7.9, 50 mM KCl, 1 mM DTT, 4% glycerol, 0.1% Triton X-100, 10 ul, 30 min room temperature, 15% PAGE, protein translated in vitro, label: biotin (probe), unlabeled as competitor
T2 sequence (looked up, limits assumed): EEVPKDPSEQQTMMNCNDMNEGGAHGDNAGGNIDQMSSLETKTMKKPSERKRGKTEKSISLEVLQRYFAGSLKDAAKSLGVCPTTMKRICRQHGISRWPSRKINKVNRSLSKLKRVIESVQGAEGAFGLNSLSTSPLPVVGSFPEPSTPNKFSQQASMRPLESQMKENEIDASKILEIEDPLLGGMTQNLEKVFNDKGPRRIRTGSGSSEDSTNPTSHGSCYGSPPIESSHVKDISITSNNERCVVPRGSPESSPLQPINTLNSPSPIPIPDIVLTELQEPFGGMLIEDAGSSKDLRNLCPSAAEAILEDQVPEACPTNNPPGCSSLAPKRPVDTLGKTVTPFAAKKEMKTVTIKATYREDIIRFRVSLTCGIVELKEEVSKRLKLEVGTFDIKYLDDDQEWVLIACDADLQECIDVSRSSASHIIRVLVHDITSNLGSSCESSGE

GGTGTGTGAGTTCTGACCCTTAAGCCTTGGAAAGGACAGTCATGCAA / GGTGTTGCATGACTGTCCTTTCCAAGGCTTAAGGGTCAGAACTCACA [CLE-RS2-1]
binding result [1]: binds more weakly

GGTGATATATTCATGATCTTTAATTCACTTGAAGAGTTAGTGATTGAT / GGTGATCAATCACTAACTCTTCAAGTGAATTAAAGATCATGAATATAT [CLE-RS2-4]
binding result ([2]; hardly inhibited): binds more weakly

GGTGGTATCAAACTGACCCCTAGTTTCAGTCCAAAGCCACCTTGATTG / GGTGCAATCAAGGTGGCTTTGGACTGAAACTAGGGGTCAGTTTGATAC [CLE-RS2-3]
binding result ([2]; weaker than self): binds more weakly
